For three molecules, binding results are on record in article PMC10710504.

Amino acid sequences for entries named in this document (tags omitted). Residues count along the entry.
UniProt Q08345, residues 19-913: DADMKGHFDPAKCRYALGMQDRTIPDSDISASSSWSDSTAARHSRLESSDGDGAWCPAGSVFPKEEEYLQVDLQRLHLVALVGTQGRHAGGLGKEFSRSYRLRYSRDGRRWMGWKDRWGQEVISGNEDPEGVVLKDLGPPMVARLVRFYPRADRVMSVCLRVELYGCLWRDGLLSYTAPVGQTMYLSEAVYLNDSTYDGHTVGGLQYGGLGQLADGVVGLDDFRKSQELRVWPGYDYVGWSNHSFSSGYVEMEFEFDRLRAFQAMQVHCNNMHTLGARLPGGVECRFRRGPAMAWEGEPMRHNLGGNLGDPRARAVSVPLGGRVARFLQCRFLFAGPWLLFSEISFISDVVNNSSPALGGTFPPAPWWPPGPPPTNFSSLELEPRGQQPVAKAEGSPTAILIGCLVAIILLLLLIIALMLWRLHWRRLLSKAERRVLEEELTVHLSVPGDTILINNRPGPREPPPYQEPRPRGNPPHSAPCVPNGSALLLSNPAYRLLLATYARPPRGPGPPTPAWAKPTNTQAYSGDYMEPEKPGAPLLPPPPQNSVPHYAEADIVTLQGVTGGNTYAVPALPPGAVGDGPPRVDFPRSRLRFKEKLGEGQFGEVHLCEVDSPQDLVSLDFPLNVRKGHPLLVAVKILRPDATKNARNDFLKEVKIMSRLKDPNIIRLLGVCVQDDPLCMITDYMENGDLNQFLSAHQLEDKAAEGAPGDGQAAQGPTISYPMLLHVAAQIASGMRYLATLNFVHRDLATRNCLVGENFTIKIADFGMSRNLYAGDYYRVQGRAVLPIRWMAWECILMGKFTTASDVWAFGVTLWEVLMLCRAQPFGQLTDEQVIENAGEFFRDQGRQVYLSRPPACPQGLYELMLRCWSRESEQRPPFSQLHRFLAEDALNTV
UniProt P31749: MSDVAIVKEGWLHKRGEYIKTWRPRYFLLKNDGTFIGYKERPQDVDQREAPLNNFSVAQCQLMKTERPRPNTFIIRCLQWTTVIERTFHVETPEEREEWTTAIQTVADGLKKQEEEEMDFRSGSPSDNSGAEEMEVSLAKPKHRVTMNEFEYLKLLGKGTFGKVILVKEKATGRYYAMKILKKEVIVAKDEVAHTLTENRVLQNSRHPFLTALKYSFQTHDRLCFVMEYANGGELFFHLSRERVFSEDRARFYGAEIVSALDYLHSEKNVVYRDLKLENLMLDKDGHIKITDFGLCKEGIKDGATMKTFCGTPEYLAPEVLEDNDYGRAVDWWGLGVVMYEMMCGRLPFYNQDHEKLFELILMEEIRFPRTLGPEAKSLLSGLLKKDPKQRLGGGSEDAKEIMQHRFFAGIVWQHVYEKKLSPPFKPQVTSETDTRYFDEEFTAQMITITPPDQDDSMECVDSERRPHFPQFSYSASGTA

These are yes or no findings as the source states them, for the method shown. In cells and extracts the contact can be indirect. Some entries that bind do so weakly or less than the wild type.

The target of experiment [1] is DDR1 (discoidin domain receptor 1) (human (endogenous in PDAC cells)) (UniProt Q08345). Briefly: co-IP; endogenous DDR1 immunoprecipitated from whole-cell lysates of PDAC cells treated with SH2 TrM-(Arg)9 or PBS; cells pre-treated with collagen (40 µg/mL, 24 h); IgG as control.
The target of experiment [2] is T1, STX17 (human (endogenous in PANC-1)), P56962.
T1 chain: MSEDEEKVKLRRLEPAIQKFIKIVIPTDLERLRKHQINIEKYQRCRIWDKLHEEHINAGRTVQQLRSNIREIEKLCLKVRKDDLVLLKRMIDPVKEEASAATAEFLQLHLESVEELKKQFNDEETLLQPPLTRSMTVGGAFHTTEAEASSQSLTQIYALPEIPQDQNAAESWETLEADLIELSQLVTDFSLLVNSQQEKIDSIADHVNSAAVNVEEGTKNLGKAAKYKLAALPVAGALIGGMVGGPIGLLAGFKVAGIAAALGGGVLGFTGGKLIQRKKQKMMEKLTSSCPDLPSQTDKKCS
The experiment in a line: co-IP; STX17 with VAMP8 and SNAP29 from PANC-1/GEM (gemcitabine-resistant) whole-cell lysates; cells with or without SH2 TrM-(Arg)9 (1 µM, 2 h); IgG as control. The following applies: remark: other sources report otherwise.

The target of experiment [3] is T1, STX17 (human (endogenous in PANC-1)), …. The experiment in a line: co-IP; endogenous STX17 with VAMP8 and SNAP29 from PANC-1 whole-cell lysates; cells treated with SH2 TrM-(Arg)9, siDDR1 or transfected with Flag-DDR1 Y792F; IgG as control. The following applies: remark: other sources report otherwise.

Consider Akt1 (from UniProt P31749 1-480), for which the binding result in experiment [1] was “binds”.

For the molecule Beclin1 (from UniProt Q14457 1-450), the binding result in experiment [1] is given as “binds”.

B1: VAMP8, Q9BV40 1-100 (protein)
chain: MEEASEGGGNDRVRNLQSEVEGVKNIMTQNVERILARGENLEHLRNKTEDLEATSEHFKTTSQKVARKFWWKNVKMIVLICVIVFIIILFIVLFATGAFS
Turning to B1, the binding result in experiment [2] and in experiment [3] was “binds” in each case.
